Experimental data published in US6562954B1, “Method for producing oligosaccharide, and novel oligosaccharide and pharmaceutical composition containing the same” (Seikagaku Corporation, priority 1999, dated 2003).
Some results were stated once for a whole list of compounds, not compound by compound. At least one structure is not confirmed: it was looked up by name or label, or the drawing left a doubt.

System: normal mice
Assay type: in vivo
Settings: for time to restore normal condition after the administration: mice, 2,000 mg/kg i.v. once, recovery from paralytic gait; for LD50 for single intravenous administration / least fatal dose for single intravenous administration: mice, single i.v. administration; for LD50 for single intravenous administration: male and female
Protocol: From the above results, the least fatal dose of K4 and G4L4 for single intravenous administration is considered to be 2,000 mg/kg or higher. Therefore, LD50 of K4 and G4L4 for single intravenous administration exceeds 2,000 mg/kg for both of male and female mice.

SMILES | time to restore normal condition after the administration [min] | LD50 for single intravenous administration | least fatal dose for single intravenous administration
CC(=O)N[C@@H]1[C@@H](O)[C@H](O[C@@H]2O[C@H](COS(=O)(=O)[O-])[C@H](O)[C@H](O[C@@H]3O[C@H](COS(=O)(=O)[O-])[C@@H](O)[C@H](O)[C@H]3NC(C)=O)[C@H]2O)[C@@H](COS(=O)(=O)[O-])O[C@H]1O.[Na+].[Na+].[Na+] [Compound G4L4, O-(2-Acetamido-2-deoxy-6-O-sulfo-β-D-glucopyranosyl)-(1→3)-O-(6-O-sulfo-β-D-galactopyranosyl)-(1→4)-O-2-acetamido-2-deoxy-6-O-sulfo-β-D-glucopyranose Trisodium Salt] | ≤ 3 | exceeds 2,000 mg/kg | ≥ 2,000 mg/kg
CC(=O)N[C@H]1[C@H](O[C@@H]2[C@@H](O)[C@H](O)O[C@H](COS(=O)(=O)[O-])[C@@H]2O)O[C@H](COS(=O)(=O)[O-])[C@@H](O)[C@@H]1O.[Na+].[Na+] [Compound K4, O-(2-Acetamido-2-deoxy-6-O-sulfo-β-D-glucopyranosyl)-(1→3)-O-6-O-sulfo-β-D-galactopyranose Disodium Salt] | ≤ 3 | exceeds 2,000 mg/kg | ≥ 2,000 mg/kg
